In patent US20160152676A1 (COLORADO STATE UNIVERSITY RESEARCH FOUNDATION, published 2016):

B1: GLUE-Cpep-CscGFP (designed binder)
chain: MEYWHYVETTSSGQPLLREGEKDIAIDQSVGLYHGKSKILQRQRGRIFLTSQRIIYIDDAKPTQNSLGLELDDLAYVNYSSGFLTRSPALILFFKDPSSSTEFVQLSFRKSDGVWFSWATEIALYTILIHSLIEESQNQQEKNEQELLGGSGGSGTSGGSGKNGIKAKFKIRHNVKDGSVQLADHYQQNTPIGRGPVLLPRNHYLSTRSKLSKDPKEKRDHMVLLEFVTAAGIKHGRDERYK
notes: Expressed in E. coli for split-spGFP reassembly; also called CspGFP-GLUE-Cpep; C-spGFP fusion of GLUE-Cpep
B2: C-peptide-CscGFP (other)
chain: MGWMEWDREINNYTSLIHSLIEESQNQQEKNEQELLGGSGGSGTSGGSGKNGIKAKFKIRHNVKDGSVQLADHYQQNTPIGRGPVLLPRNHYLSTRSKLSKDPKEKRDHMVLLEFVTAAGIKHGRDERYK
notes: Expressed in E. coli for split-spGFP reassembly; also called CspGFP-Cpep; C-spGFP fusion of the gp41 C-peptide

Target: T1, NscGFP-5helix (HIV-1)
T1 construct: Expressed in E. coli for split-spGFP reassembly; also called NspGFP-5-helix; N-spGFP-5-helix
Experiment: split-spGFP reassembly in E. coli, flow cytometry

Row | Binder | binding result
1 | B1 | binds
2 | B2 | binds
